Screen size: about 300,000 compounds; about 3,700 (1.2%) were called active. The inconclusive results got no clear call from the source; some entries with a clear call stand among them for comparison. Calls follow the shape of the full dose curve; tested in HEK293 cells. Potencies of inconclusive entries are doubtful fits and often do not repeat.
Experiment: qHTS for Inhibitors of binding or entry into cells for Lassa Virus; also: nearly all actives have a fitted effect of over 50% in size
Details: Lassa virus pseudotype entry inhibition, cell reporter; series mostly up to 37.9 µM
Potency is read from the fitted curve at half-maximal effect.

Row | Compound | Potency
1 | O=C(CN1CCc2cc3c(cc2C1)OCCCO3)Nc1ccc(S(=O)(=O)N2CCCC2)cc1 | inconclusive: 12.6 µM [inhibitor, partial curve, poor fit]
2 | COc1cc(C(=S)N2CCOCC2)cc(OC)c1OC(=O)c1ccc([N+](=O)[O-])cc1[N+](=O)[O-] | inactive
3 | Cc1c(/C=C/C(=O)c2ccccc2O)cnn1C | inconclusive: 0.708 µM [activator, full curve, poor fit]
4 | CC(/C=N/n1c(C2CCCCC2)n[nH]c1=S)=C\c1ccccc1 | active: 18.3 µM
5 | Cc1ccc(NC(=O)CCN2C(=O)c3ccccc3C2=O)c(C)c1 | inconclusive: 6.31 µM [inhibitor, single point]
6 | CCC(=O)O[C@]1(C(=O)CCl)[C@@H](C)C[C@H]2[C@@H]3CCC4=CC(=O)C=C[C@]4(C)[C@@]3(F)[C@@H](O)C[C@@]21C | inconclusive: 23.1 µM [inhibitor, single point]
7 | Cc1nn(C(C)(C)C)c(OC(=O)CC(C)C)c1S(=O)(=O)c1ccccc1 | inconclusive: 3.16 µM [inhibitor, full curve, poor fit]
8 | Nc1ccc2c(c1)Cc1cc(N)c(Cl)cc1-2 | inconclusive: 10 µM [inhibitor, partial curve, poor fit]
9 | O=C(CN(c1ccccc1)S(=O)(=O)c1ccccc1)N1CCN(Cc2ccc3c(c2)OCO3)CC1 | inconclusive: 35.5 µM [inhibitor, single point]
10 | CNc1ccc(Br)cc(C(=O)/C=C/c2cccc(OC)c2)c1=O | inconclusive: 20.6 µM [inhibitor, single point]
11 | CCCCn1c(=O)[nH]c(=O)c2c1nc(-c1ccc(-c3ccccc3)cc1)n2C | inconclusive: 3.55 µM [inhibitor, single point]
12 | Cc1nn(C)c(C)c1/C=C/C(=O)c1ccc(Cl)cc1Cl | inconclusive: 12.6 µM [inhibitor, single point]
13 | COC(=O)[C@H]1C[C@@H]1[C@H](NS(=O)(=O)c1ccc2ccccc2c1)c1ccccc1 | inconclusive: 0.0046 µM [inhibitor, full curve, poor fit]
14 | CCC(=O)Nc1ccc(C(=O)COC(=O)c2sc(C)nc2C)cc1 | inconclusive: 11.2 µM [inhibitor, partial curve, poor fit]
15 | COc1ccc(CNC(=O)CSc2ncc3c(n2)-c2ccc(Cl)cc2N(Cc2ccccc2)S3(=O)=O)cc1 | inactive
16 | Cc1cc(Cl)ccc1OCC(=O)N(Cc1ccco1)Cc1ccccc1F | inactive
17 | O=[N+]([O-])c1cccc(-c2ccc(SCc3ccccn3)nn2)c1 | inactive
18 | COc1ccccc1C(=O)NC1(C(F)(F)F)C(=O)Nc2c1c(=O)[nH]c(=O)n2-c1ccc(F)cc1 (configuration not stated) | inactive
19 | CC(=O)Nc1ccc(-c2csc(NC(=O)Cc3ccccc3F)n2)cc1 | inconclusive: 11.2 µM [inhibitor, partial curve]
20 | O=C(CSC(=S)N1CCCC1)NCC(=O)Nc1ccccc1Br | inactive
21 | CCOc1ccccc1NC(=O)CCc1c(C)nn(-c2ccc(N3CCCCC3)nn2)c1C | inconclusive: 10 µM [inhibitor, partial curve, poor fit]
22 | COc1ccc(-c2cc(-c3cn[nH]c3-c3ccccn3)ccn2)cc1 | inconclusive: 4.45 µM [activator, full curve]
23 | Cc1nn2c(nc1=O)SCC(c1ccccc1)=N2 | inconclusive: 6.51 µM [activator, partial curve, poor fit]

Row | Compound | Potency
24 | CCCCn1c(N)c(N(CCC(C)C)C(=O)c2[nH]c(C)c(C(=O)OCC)c2C)c(=O)[nH]c1=O | inactive
25 | CC1CCc2[nH]c3ccc(C(=O)N(C)CC(=O)Nc4ccccc4Cl)cc3c2C1 (configuration not stated) | inactive
26 | Cc1noc(C)c1S(=O)(=O)N1CCCC(C(=O)c2cccc(OC(C)C)c2)C1 (configuration not stated) | inconclusive: 12.6 µM [inhibitor, single point]
27 | CN(C(=O)COC(=O)c1n[nH]c2ccccc12)c1ccccc1 | inactive
28 | CCOc1ncccc1C(=O)N1CCN(C(c2ccccc2)c2ccccc2)CC1 | inconclusive: 35.5 µM [inhibitor, single point]
29 | Oc1ccccc1/C=N/NC1=NCCCCC1 | inconclusive: 29.1 µM [inhibitor, single point]
30 | COc1ccc(OC)c(C2CC(=O)Oc3c2c(=O)n(C)c2ccccc32)c1 (configuration not stated) | inactive
31 | Cc1cccc(N(CC(=O)Nc2ccccc2C(F)(F)F)S(=O)(=O)c2ccccc2)c1C | inconclusive: 35.5 µM [inhibitor, single point]
32 | Cc1nc(NC(=O)c2ccccc2)sc1-c1csc(Nc2ccc(C(=O)O)cc2)n1 | inconclusive: 18.3 µM [inhibitor, partial curve, poor fit]
33 | Cc1ccc(/C=C/C(=O)c2ccc(O)cc2)cc1 | active: 8.91 µM
34 | COc1ccccc1-c1noc(-c2cc(OC)c(OC)c(OC)c2)n1 | inconclusive: 25.9 µM [inhibitor, single point]
35 | Cc1cccc(OCCNc2cc(N3CCN(C)CC3)ccc2[N+](=O)[O-])c1 | inconclusive: 35.5 µM [inhibitor, single point]
36 | COc1ccc(-c2csc(NC(=O)CSCc3c(C)noc3C)n2)c(OC)c1 | inconclusive: 1.26 µM [inhibitor, single point]
37 | COc1ccc(OC)c(-c2cc(-c3cccnc3)nc(N)c2C#N)c1 | inconclusive: 7.08 µM [inhibitor, partial curve, poor fit]
38 | O=C(CSc1nnc(-c2cccnc2)s1)Nc1ccccc1 | inconclusive: 31.6 µM [activator, single point]
39 | CCn1ncc(CNC(=O)CCSc2nc(-c3ccco3)cc(C(F)(F)F)n2)c1C | inactive
40 | Cc1[nH]c2ccccc2c1C(=O)COC(=O)c1cccc(S(=O)(=O)N2CCCCC2)c1 | inconclusive: 35.5 µM [inhibitor, single point]
41 | CC(C)c1nc2oc3c(N(C)CCO)ncnc3c2c2c1CCC2 | inconclusive: 0.282 µM [inhibitor, full curve, poor fit]
42 | CC(C)CCOc1ccc(Cn2c(=O)oc3ccccc32)cc1 | inactive
43 | COC(=O)c1scc(C)c1S(=O)(=O)Nc1ccc(C)cc1 | inconclusive: 35.5 µM [inhibitor, partial curve, poor fit]
44 | Cc1occc1-c1n[nH]c(=S)n1-c1ccccc1 | inactive
45 | CC1(C)CC(=O)c2cnc(NC(=O)CCc3ccccc3)nc2C1 | inconclusive: 0.891 µM [inhibitor, full curve]
46 | CCc1nnc2c3cnn(-c4ccccc4)c3ncn12 | inconclusive: 6.31 µM [activator, single point]

Row | Compound | Potency
47 | CCOCCCNC(=O)C(c1ccc(Cl)cc1)N1CCN(C(=O)c2ccco2)CC1 (configuration not stated) | inactive
48 | CCc1nn2c(=O)cc(COC(=O)Cc3ccccc3)nc2s1 | inactive
49 | CCOC(=O)C1(CCCc2ccccc2)CCN(C(=O)CCN2CCCCC2=O)CC1 | inconclusive: 17.8 µM [inhibitor, partial curve, poor fit]
50 | COc1ccc(/C=N/NC(=S)Nc2ccccc2[N+](=O)[O-])cc1O | active: 23.1 µM
51 | COc1ccccc1C(=O)OCc1nc(N)nc(Nc2ccccc2C)n1 | inconclusive: 35.5 µM [inhibitor, single point]
52 | CC(CNC(=O)CCn1ccc2cc(S(=O)(=O)N3CCCC3)ccc21)c1ccccc1 (configuration not stated) | inconclusive: 20 µM [inhibitor, partial curve, poor fit]
53 | O=C1CC(N2CCN(c3ccc(F)cc3)CC2)C(=O)N1Cc1ccc(N2CCCC2=O)cc1 (configuration not stated) | inconclusive: 15.8 µM [inhibitor, partial curve, poor fit]
54 | CCc1ccccc1NC(=O)CN(C)C(=O)COC(=O)c1c(Cl)cccc1Cl | inconclusive: 3.55 µM [inhibitor, partial curve, poor fit]
55 | CCN(CCCNC(=O)CN(C)S(=O)(=O)c1cccc2nsnc12)c1cccc(C)c1 | inconclusive: 29.1 µM [inhibitor, single point]
56 | O=C(c1ccc2c(c1)N(Cc1ccc(F)cc1)C(=O)c1ccccc1S2)N1CCC2(CC1)OCCO2 | inconclusive: 35.5 µM [inhibitor, single point]
57 | Cc1scc(CN2CCN(c3ccccc3F)CC2)c1C | inactive
58 | COc1ccc(Nc2nc(N)nc(CSc3nc(C)cc(C)n3)n2)cc1 | inconclusive: 11.2 µM [inhibitor, single point]
59 | CC1=CC(C)(C)Nc2ccc(OC(=O)CN3C(=O)C4CCCCC4C3=O)cc21 (configuration not stated) | inactive
60 | CCc1ccc(-n2nc(CO)c(C(=O)NCCOC)n2)cc1 | inactive
61 | COc1ccc(N2Cc3ccccc3/C2=N\C(=O)Nc2ccccc2)cc1 | inactive
62 | CCN(CC)S(=O)(=O)c1ccc2c(c1)nc(CCC(=O)OCC(=O)Nc1cc(OC)cc(OC)c1)n2C | inconclusive: 35.5 µM [inhibitor, single point]
63 | CC1(C)C(=O)OC(c2cccs2)C(C)(C)C1=O (configuration not stated) | inactive
64 | CCc1ccc(S(=O)(=O)NCc2ccc3c(c2)CCN3C(=O)c2ccc(C)cc2)cc1 | inconclusive: 10 µM [inhibitor, partial curve, poor fit]
65 | CC1=C(C(=O)Nc2ccccc2C)C(c2cccs2)n2nc(SCc3ccccc3)nc2N1 (configuration not stated) | inconclusive: 35.5 µM [inhibitor, single point]
66 | CCN1C(=O)N(S(=O)(=O)C(F)(F)F)C(c2ccccc2)C(C(=O)OC)=C1C (configuration not stated) | inconclusive: 5.96 µM [activator, single point]
67 | Clc1cccc(Oc2cnc3ccccc3n2)c1 | inactive

Structural class, those above with bromine
Row | Compound | Potency
10 | CNc1ccc(Br)cc(C(=O)/C=C/c2cccc(OC)c2)c1=O | inconclusive: 20.6 µM [inhibitor, single point]
20 | O=C(CSC(=S)N1CCCC1)NCC(=O)Nc1ccccc1Br | inactive

From PubChem BioAssay AID540256 (National Center for Advancing Translational Sciences (NCATS), 2011)
